# Measured values published in the supplement of paper PMC8728848.
# Some of the results follow.
# B1: SfaEH (Escherichia coli), Q1RDG5 (protein)
# chain: LLCRNNQTGQVFNSGDTSFRVNVSPVVQYDKSISVLDLSQLVSCQNEDSTGQNYDYLKILKGSGFSPALDTKTYGRLDFTSRPTGYARQLPLQFDLQVTEAFYQYGVWKPFPAKLYLYPAPGVFGKVINNGDLLATLYVNKFSTKGQEAGERNFTWRFYATNDVYIQTGTCRVSSNNVKVDLPSYPGGPVTVPLTVRCDQTQSVSYTLSGPVTGSGNTVFANTAASGSGGVGIQLSDNVGPVPAGQPRSLGQVGSSPVSLGLKASYALTGQASPTPGAVQSVINVTFSYN
# Assays:
# Test in all cases: glycan array binding signal (z-score within array); higher = stronger binding
# Details in all cases: glycan notation: IUPAC condensed, linker removed
# [1] = target: Neu5Ac(a2-6)GlcNAc(b1-4)GlcNAc(b1-4)GlcNAc
# Summary of the method: (§1)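 Arrays were curated from the Consortium for Functional Glycomics database, 3228 in total, and kept only where the protein sequence was available. Binding is expressed as a within-array Z-score. This score was averaged across arrays of the same protein sequence at different concentrations or buffers and across linkers, and negative values can be read as non-binding.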
# Neu5Ac(a2-8)Neu5Ac = target: Neu5Ac(a2-8)Neu5Ac
# Summary of the method: as §1
# [2] = target: Neu5Ac(a2-8)Neu5Ac(a2-3)Gal(b1-3)GalNAc(b1-4)[Neu5Ac(a2-3)]Gal(b1-4)Glc
# Summary of the method: as §1
# [3] = target: Neu5Ac(a2-8)Neu5Ac(a2-3)Gal(b1-3)GalNAc(b1-4)[Neu5Ac(a2-8)Neu5Ac(a2-3)]Gal(b1-4)Glc
# Summary of the method: as §1
# [4] = target: Neu5Ac(a2-8)Neu5Ac(a2-3)Gal(b1-4)Glc
# Summary of the method: as §1
# [5] = target: Neu5Ac(a2-8)Neu5Ac(a2-3)Gal(b1-4)GlcNAc
# Summary of the method: as §1
# [6] = target: Neu5Ac(a2-8)Neu5Ac(a2-3)[Gal(b1-3)GalNAc(b1-4)]Gal(b1-4)Glc
# Summary of the method: as §1
# [7] = target: Neu5Ac(a2-8)Neu5Ac(a2-3)[GalNAc(b1-4)]Gal(b1-4)Glc
# Summary of the method: as §1
# [8] = target: Neu5Ac(a2-8)Neu5Ac(a2-8)Neu5Ac
# Summary of the method: as §1
# [9] = target: Neu5Ac(a2-8)Neu5Ac(a2-8)Neu5Ac(a2-3)Gal(b1-4)Glc
# Summary of the method: as §1
# [10] = target: Neu5Ac(a2-8)Neu5Ac(a2-8)Neu5Ac(a2-3)[Gal(b1-3)GalNAc(b1-4)]Gal(b1-4)Glc
# Summary of the method: as §1
# [11] = target: Neu5Ac(a2-8)Neu5Ac(a2-8)Neu5Ac(a2-3)[GalNAc(b1-4)]Gal(b1-4)Glc
# Summary of the method: as §1
# [12] = target: Neu5Ac(a2-8)Neu5Ac(a2-8)Neu5Ac(a2-8)Neu5Ac(a2-3)[GalNAc(b1-4)]Gal(b1-4)Glc
# Summary of the method: as §1
# [13] = target: Neu5Ac(a2-8)Neu5Gc(a2-3)Gal(b1-4)GlcNAc
# Summary of the method: as §1
# [14] = target: Neu5Ac(b2-6)Gal(b1-4)GlcNAc
# Summary of the method: as §1
# Neu5Ac(b2-6)GalNAc = target: Neu5Ac(b2-6)GalNAc
# Summary of the method: as §1
# [15] = target: Neu5Ac9Ac(a2-3)Gal(b1-4)GlcNAc
# Summary of the method: as §1
# [16] = target: Neu5Ac9Ac(a2-6)Gal(b1-4)GlcNAc
# Summary of the method: as §1
# [17] = target: Neu5Gc(a2-3)Gal(b1-3)GlcNAc
# Summary of the method: as §1
# [18] = target: Neu5Gc(a2-3)Gal(b1-3)[Fuc(a1-4)]GlcNAc
# Summary of the method: as §1
# Neu5Gc(a2-3)Gal(b1-4)Glc = target: Neu5Gc(a2-3)Gal(b1-4)Glc
# Summary of the method: as §1
# [19] = target: Neu5Gc(a2-3)Gal(b1-4)GlcNAc
# Summary of the method: as §1
# [20] = target: Neu5Gc(a2-3)Gal(b1-4)GlcNAc(b1-3)Gal(b1-4)GlcNAc(b1-2)Man(a1-3)[Neu5Gc(a2-3)Gal(b1-4)GlcNAc(b1-3)Gal(b1-4)GlcNAc(b1-2)Man(a1-6)]Man(b1-4)GlcNAc(b1-4)GlcNAc
# Summary of the method: as §1
# [21] = target: Neu5Gc(a2-3)Gal(b1-4)[Fuc(a1-3)]GlcNAc
# Summary of the method: as §1
# [22] = target: Neu5Gc(a2-6)Gal(b1-4)GlcNAc
# Summary of the method: as §1
# Neu5Gc(a2-6)GalNAc = target: Neu5Gc(a2-6)GalNAc
# Summary of the method: as §1
# [23] = target: Neu5Gc(a2-8)Neu5Ac(a2-3)Gal(b1-4)GlcNAc
# Summary of the method: as §1
# [24] = target: Neu5Gc(a2-8)Neu5Gc(a2-3)Gal(b1-4)GlcNAc
# Summary of the method: as §1
# [25] = target: Neu5Gc(a2-8)Neu5Gc(a2-3)Gal(b1-4)GlcNAc(b1-3)Gal(b1-4)GlcNAc
# Summary of the method: as §1
# [26] = target: Neu5Gc(a2-8)Neu5Gc(a2-6)Gal(b1-4)GlcNAc
# Summary of the method: as §1
# [27] = target: Neu5Gc(b2-6)Gal(b1-4)GlcNAc
# Summary of the method: as §1
binder,measurement,setting,value
B1,glycan array binding signal (z-score),[1],1.19
same,glycan array binding signal (z-score),Neu5Ac(a2-8)Neu5Ac,0.125
same,glycan array binding signal (z-score),[2],1.34
same,glycan array binding signal (z-score),[3],1.01
same,glycan array binding signal (z-score),[4],0.69
same,glycan array binding signal (z-score),[5],-0.28
same,glycan array binding signal (z-score),[6],-0.016
same,glycan array binding signal (z-score),[7],0.178
same,glycan array binding signal (z-score),[8],0.078
same,glycan array binding signal (z-score),[9],0.437
same,glycan array binding signal (z-score),[10],0.954
same,glycan array binding signal (z-score),[11],-0.874
same,glycan array binding signal (z-score),[12],-0.666
same,glycan array binding signal (z-score),[13],-0.786
same,glycan array binding signal (z-score),[14],0.418
same,glycan array binding signal (z-score),Neu5Ac(b2-6)GalNAc,-0.605
same,glycan array binding signal (z-score),[15],-0.618
same,glycan array binding signal (z-score),[16],-0.071
same,glycan array binding signal (z-score),[17],-0.062
same,glycan array binding signal (z-score),[18],-0.549
same,glycan array binding signal (z-score),Neu5Gc(a2-3)Gal(b1-4)Glc,-0.315
same,glycan array binding signal (z-score),[19],-0.397
same,glycan array binding signal (z-score),[20],-0.442
same,glycan array binding signal (z-score),[21],0.13
same,glycan array binding signal (z-score),[22],-0.572
same,glycan array binding signal (z-score),Neu5Gc(a2-6)GalNAc,-0.577
same,glycan array binding signal (z-score),[23],-0.503
same,glycan array binding signal (z-score),[24],0.37
same,glycan array binding signal (z-score),[25],-0.69
same,glycan array binding signal (z-score),[26],2.33
same,glycan array binding signal (z-score),[27],-0.164

# Three neighbouring records out of the list so far:
binder,measurement,setting,value
B1,glycan array binding signal (z-score),[13],-0.786
same,glycan array binding signal (z-score),[14],0.418
same,glycan array binding signal (z-score),Neu5Ac(b2-6)GalNAc,-0.605
